In this assay the target is α-bungarotoxin (UniProt P60615). The experiment in a line: pull-down; only the target purified.

By UniProt entry, the sequences of proteins in these tests, tags left out. Residues count along the entry.
UniProt P60615, residues 22-95: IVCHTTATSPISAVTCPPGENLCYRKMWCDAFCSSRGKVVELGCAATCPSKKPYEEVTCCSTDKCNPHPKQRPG
UniProt P36544, residues 23-502: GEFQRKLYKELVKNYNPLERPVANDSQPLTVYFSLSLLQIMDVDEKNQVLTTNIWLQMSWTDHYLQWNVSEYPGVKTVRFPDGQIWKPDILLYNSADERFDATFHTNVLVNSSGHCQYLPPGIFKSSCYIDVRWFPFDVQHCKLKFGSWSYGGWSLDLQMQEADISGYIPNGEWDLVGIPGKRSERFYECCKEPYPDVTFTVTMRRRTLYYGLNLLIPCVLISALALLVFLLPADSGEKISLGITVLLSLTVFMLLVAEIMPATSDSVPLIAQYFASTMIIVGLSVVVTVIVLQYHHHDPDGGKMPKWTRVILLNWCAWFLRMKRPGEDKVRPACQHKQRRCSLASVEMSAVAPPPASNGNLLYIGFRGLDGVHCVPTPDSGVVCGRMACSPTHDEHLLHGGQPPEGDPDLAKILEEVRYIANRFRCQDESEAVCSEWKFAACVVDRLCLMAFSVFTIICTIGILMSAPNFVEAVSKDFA
UniProt P49582, residues 23-502: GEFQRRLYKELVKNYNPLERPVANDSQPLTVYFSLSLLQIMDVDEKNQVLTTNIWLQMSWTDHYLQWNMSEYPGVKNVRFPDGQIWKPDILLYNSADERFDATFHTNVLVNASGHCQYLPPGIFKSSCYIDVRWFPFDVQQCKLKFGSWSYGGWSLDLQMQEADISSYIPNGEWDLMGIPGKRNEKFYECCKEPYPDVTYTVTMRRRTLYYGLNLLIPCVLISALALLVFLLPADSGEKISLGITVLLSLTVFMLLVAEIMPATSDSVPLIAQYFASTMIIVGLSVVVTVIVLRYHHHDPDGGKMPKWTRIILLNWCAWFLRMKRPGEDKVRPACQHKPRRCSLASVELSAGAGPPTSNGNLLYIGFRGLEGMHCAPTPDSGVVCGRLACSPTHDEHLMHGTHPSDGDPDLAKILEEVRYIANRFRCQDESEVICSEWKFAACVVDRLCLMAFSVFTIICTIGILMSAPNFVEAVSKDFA

The results in this text go back to PMC5738045.

Results are given in words; binding and its absence hold for the method and conditions named. In cells and extracts the contact can be indirect. Some results given as binding are weak or reduced against the parent protein; the word gives no strength.

As for “α7 nicotinic acetylcholine receptor (human brain) (from UniProt P36544 23-502)”, the binding entry is recorded as “binds”. Turning to “α7 nicotinic acetylcholine receptor (mouse brain) (from UniProt P49582 23-502)”, the binding entry is listed as “binds”.
